Data: paper PMC8989918
Results are given in words; binding and its absence hold for the method and conditions named. In cells and extracts the contact can be indirect. Some entries that bind do so weakly or less than the wild type.

Chains of the proteins cited; added tags and fusions are not shown. Lines headed by an entry give the natural chain unless they say otherwise; changes in a name come on top. A line that says so, or that is headed by a name, gives the form on record, which may keep a tag or linker.
Csk K43D, epitope-tagged (Csk^Myc and Csk^HA, both K43D) (P41241, form named): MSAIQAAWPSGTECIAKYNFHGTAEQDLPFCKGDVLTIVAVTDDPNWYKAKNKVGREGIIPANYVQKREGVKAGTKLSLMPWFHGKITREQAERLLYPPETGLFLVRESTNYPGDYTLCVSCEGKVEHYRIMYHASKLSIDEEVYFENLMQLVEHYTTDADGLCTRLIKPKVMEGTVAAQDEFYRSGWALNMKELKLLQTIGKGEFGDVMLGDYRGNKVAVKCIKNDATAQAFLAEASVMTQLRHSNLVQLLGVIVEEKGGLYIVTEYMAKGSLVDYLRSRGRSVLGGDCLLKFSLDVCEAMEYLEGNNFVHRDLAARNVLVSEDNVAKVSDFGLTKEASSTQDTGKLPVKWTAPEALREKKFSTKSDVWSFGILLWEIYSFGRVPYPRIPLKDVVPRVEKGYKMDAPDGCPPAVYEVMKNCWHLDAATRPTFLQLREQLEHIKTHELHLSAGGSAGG

Target: Csk K43D, epitope-tagged (Csk^Myc and Csk^HA, both K43D) (mouse) (UniProt P41241)
Test: co-IP; anti-Myc (9B11) immunoprecipitation on Protein-A sepharose, 2 h at 4 °C, from lysates of Jurkat cells co-transfected with Csk^Myc and Csk^HA; lysis buffer 1% lauryl maltoside, 150 mM NaCl, 0.4 mM EDTA, 10 mM Tris pH 7.5; blots for HA, Myc and endogenous PTPN22; densitometry corrected for Csk^Myc pulldown, relative to WT

- binding: binds
Substance: Csk K43D, epitope-tagged (Csk^Myc and Csk^HA, both K43D) (from UniProt P41241 1-450)
